{
  "source": "patent US20090137411A1",
  "about": "“Methods and biochips for detecting small molecule compounds” (priority 2004, published 2009)",
  "data": [
    {"tested_on": "antibody that specifically binds to enrofloxacin, antibody that specifically binds to sulfimidine, antibody that specifically binds to streptomycin", "experiment": "Biochip competitive immunoassay for residual veterinary drugs", "type": "binding", "conditions": "detection system (biochip) for residual veterinary drugs", "units": {"Linear range": "ng/g", "Sensitivity": "ng/g"}, "values": [
      {"molecule": "CCN1CCN(c2cc3c(cc2F)c(=O)c(C(=O)O)cn3C2CC2)CC1", "note": "[Enrofolxacin, enrofloxacin]", "Linear range": "1 to 50", "Sensitivity": 1},
      {"molecule": "[H]/N=C(/N)N[C@H]1[C@H](O)[C@@H](O)[C@H](O[C@@H]2O[C@@H](C)[C@](O)(C=O)[C@H]2O[C@@H]2O[C@@H](CO)[C@H](O)[C@@H](O)[C@@H]2NC)[C@@H](N/C(N)=N\\[H])[C@@H]1O", "note": "[Streptomycin, streptomycin]", "Linear range": "5 to 200", "Sensitivity": 5},
      {"molecule": "Cc1cc(C)nc(NS(=O)(=O)c2ccc(N)cc2)n1", "note": "[Sulfadimidine, sulfadimidine]", "Linear range": "0.5 to 20", "Sensitivity": 0.5}
    ]},
    {"tested_on": "anti-drug mouse monoclonal antibodies", "experiment": "Biochip competitive immunoassay for prohibited substances in urine", "type": "binding", "conditions": "lowest concentration detected by the chip, signal 3 SD lower than the mean of the negative control", "units": {"Detection limit": "µg/L"}, "values": [
      {"molecule": "CC(N)Cc1ccccc1", "note": "(centres unmarked) [Amphetamine, amphetamine]", "Detection limit": 2.0},
      {"molecule": "C[C@H]1O[C@@H](O[C@H]2[C@@H](O)C[C@H](O[C@H]3[C@@H](O)C[C@H](O[C@H]4CC[C@@]5(C)[C@H](CC[C@@H]6[C@@H]5C[C@@H](O)[C@]5(C)[C@@H](C7=CC(=O)OC7)CC[C@]65O)C4)O[C@@H]3C)O[C@@H]2C)C[C@H](O)[C@@H]1O", "note": "[Digoxin, digoxin]", "Detection limit": 1.0},
      {"molecule": "CCC(=O)C(CC(C)N(C)C)(c1ccccc1)c1ccccc1", "note": "(centres unmarked) [Methadone, methadone]", "Detection limit": 19.0},
      {"molecule": "CN[C@@H](C)Cc1ccccc1", "note": "[Methamphetamine]", "Detection limit": 3.1},
      {"molecule": "CN1CC[C@]23c4c5ccc(O)c4O[C@H]2[C@@H](O)C=C[C@H]3[C@H]1C5", "note": "[Morphine, morphine]", "Detection limit": 0.2},
      {"molecule": "C[C@]12CC[C@H]3[C@@H](CCC4=CC(=O)CC[C@@]43C)[C@@H]1CC[C@@H]2O", "note": "[Testosterone]", "Detection limit": 0.4},
      {"molecule": "gentamicin", "Detection limit": 1.1}
    ]},
    {"tested_on": "anti-drug mouse monoclonal antibodies", "experiment": "Biochip competitive immunoassay for prohibited substances in urine", "type": "binding", "conditions": "lowest concentration detected by the chip, signal 3 SD lower than the mean of the negative control, listed as methadone", "units": {"Detection limit": "µg/L"}, "values": [
      {"molecule": "CCC(=O)C(CC(C)N(C)C)(c1ccccc1)c1ccccc1", "note": "(centres unmarked) [Methadone, methadone]", "Detection limit": 19}
    ]}
  ]
}
